The exact form of at least one protein or probe is not confirmed. Where cells or extracts were used, other partners may take part.
Target: heat shock cognate 71-kDa protein (HSPA8) (UniProt P63017)
Assay: pull-down from cell lysate with mass spectrometry
Conditions: the KD of 2.5 nM (cited) is for whole Ehrlich cells, not for HSPA8, Pull-down buffer not given (protocol of Zamay et al.), cell experiments in DPBS with 0.9 mM CaCl2 and 0.49 mM MgCl2, aptamer heated at 95 C 10 min then ice 10 min, protein in an extract, single-stranded DNA

By UniProt entry, the sequences of proteins in these tests, tags left out.
UniProt P63017, whole entry: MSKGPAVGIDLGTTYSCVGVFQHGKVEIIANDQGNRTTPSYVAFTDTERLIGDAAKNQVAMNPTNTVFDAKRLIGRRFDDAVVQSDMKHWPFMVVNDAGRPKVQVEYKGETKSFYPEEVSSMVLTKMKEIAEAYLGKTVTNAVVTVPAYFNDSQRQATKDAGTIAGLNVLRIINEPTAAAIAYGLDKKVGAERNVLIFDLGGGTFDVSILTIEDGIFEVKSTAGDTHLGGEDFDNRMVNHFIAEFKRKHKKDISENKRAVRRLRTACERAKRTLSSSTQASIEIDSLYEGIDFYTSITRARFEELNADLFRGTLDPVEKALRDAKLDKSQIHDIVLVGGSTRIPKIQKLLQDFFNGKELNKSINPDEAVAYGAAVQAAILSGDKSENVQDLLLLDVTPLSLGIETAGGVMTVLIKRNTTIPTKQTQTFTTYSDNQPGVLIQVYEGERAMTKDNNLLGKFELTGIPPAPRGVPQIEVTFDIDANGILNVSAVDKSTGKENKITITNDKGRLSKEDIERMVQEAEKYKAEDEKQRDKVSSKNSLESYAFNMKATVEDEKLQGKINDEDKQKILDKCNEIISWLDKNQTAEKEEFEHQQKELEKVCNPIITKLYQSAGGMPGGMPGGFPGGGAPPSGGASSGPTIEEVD

CTCCTCTGACTGTAACCACGTCAATGGGTGATATATGCAGGTTACGCTGGCTAGTTGAAAGCATAGGTAGTCCAGAAGCC [As42 (AS42) aptamer]
binding result: binds
